PubChem BioAssay AID1259254 – NCATS – 2017

Screen: 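Finding genes that stop cells copying their DNA twice in one cycle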 (primary screen)
Cell system: human HCT116 colorectal cancer cells
Reagent: single siRNA against human genes
Timing: 3 days
Measured: 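Nuclei stained with Hoechst and imaged; cell-cycle phase assigned by DNA content; G2 share scaled per plate, non-targeting siRNA 0%, GMNN siRNA 100%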
Direction: G2 robust z-score and G2 cells, % of GMNN control: higher = more G2 cells, more excess DNA replication; raw share of cells in G2: higher = larger share of cells with G2 DNA content
Call rule: 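An siRNA counts as active if its G2 robust z-score lies at least 5 MADs above the screen median; here such calls match roughly 38% of GMNN control or more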
This is one part, drawn at random, of about 59,000 reagents tested. About 1,550 of them (2.6%) were called active. 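G2 share is only a proxy for re-replication; each gene was hit by three separate siRNAs, and active genes were retested.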 Raw values vary from plate to plate and are shown uncorrected. Unmarked entries are inactive. The numbers tell different reagents against one gene apart. Reagent sequences are not shown. Not stated in the record: the amount of reagent.

The first 3 entries as a preview:
Target gene | reagent | G2 robust z-score | G2 cells, % of GMNN control | raw share of cells in G2 (%)
FAM20C | 1 | -0.339 | 0.585 | 3.21
FAM20C | 2 | -0.36 | 0.438 | 4.52
FAM20C | 3 | 0.269 | 4.86 | 6.78

Main list, from the first entry:
Target gene | reagent | G2 robust z-score | G2 cells, % of GMNN control | raw share of cells in G2 (%)
FAM20C | 1 | -0.339 | 0.585 | 3.21
FAM20C | 2 | -0.36 | 0.438 | 4.52
FAM20C | 3 | 0.269 | 4.86 | 6.78
NOX1 | 1 | -0.855 | -3.04 | 4.78
NOX1 | 2 | -0.599 | -1.25 | 3.77
NOX1 | 3 | 2.65 | 21.6 | 11.1
ITK | 1 | -0.111 | 2.19 | 4.8
ITK | 2 | 2.04 | 17.4 | 11.3
ITK | 3 | -1.09 | -4.67 | 3.84
TIMMDC1 | 1 | 0.0359 | 3.22 | 4.76
TIMMDC1 | 2 | -0.569 | -1.04 | 3.83
TIMMDC1 | 3 | 2.02 | 17.2 | 8.88
DMRT2 | 1 | 1.2 | 11.4 | 10.7
DMRT2 | 2 | 0.245 | 4.69 | 5.36
DMRT2 | 3 | -1.25 | -5.83 | 4.18
GSTK1 | 1 | 0.791 | 8.53 | 7.4
GSTK1 | 2 | 0.401 | 5.79 | 8.4
GSTK1 | 3 | 2.07 | 17.5 | 11.8
GPR17 | 1 | -0.105 | 2.23 | 6.64
GPR17 | 2 | -1.07 | -4.54 | 2.93
GPR17 | 3 | 1.68 | 14.8 | 7.81
ZFHX4 | 1 | 1 | 10 | 7.82
ZFHX4 | 2 | -0.152 | 1.89 | 5.49
ZFHX4 | 3 | -0.219 | 1.43 | 6.02
TIE1 | 1 | -1.4 | -6.91 | 3.33
TIE1 | 2 | -1.06 | -4.48 | 2.45
TIE1 | 3 | -1.12 | -4.9 | 3.76
CD81 | 1 | -0.37 | 0.363 | 4.22
CD81 | 2 | -0.0357 | 2.72 | 5.93
CD81 | 3 | -0.751 | -2.32 | 4.15
